Assay results reported in patent US20240024505A1.
These are yes or no findings as the source states them, for the method shown. Some entries that bind do so weakly or less than the wild type.

The chains behind the UniProt entries cited, without tags or fusion partners. Residues count along the entry.
UniProt P05019, residues 49-118: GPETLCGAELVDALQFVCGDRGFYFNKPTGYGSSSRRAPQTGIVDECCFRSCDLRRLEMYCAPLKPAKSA
UniProt P17936, residues 28-291: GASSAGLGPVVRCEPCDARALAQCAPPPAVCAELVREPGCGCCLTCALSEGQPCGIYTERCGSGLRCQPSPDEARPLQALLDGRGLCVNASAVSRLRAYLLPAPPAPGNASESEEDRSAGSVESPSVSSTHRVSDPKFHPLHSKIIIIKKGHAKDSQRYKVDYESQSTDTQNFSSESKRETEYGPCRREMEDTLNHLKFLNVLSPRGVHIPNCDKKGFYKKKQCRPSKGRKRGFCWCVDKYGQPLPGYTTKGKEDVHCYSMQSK

How the values were obtained:
[1] = target: recombinant IGF-1 (UniProt P05019); experiment: sandwich ELISA for free IGF-1 (FIG. 4D legend)
[2] = target: recombinant IGF-1 (UniProt P05019); experiment: sandwich ELISA for free IGF-1 after incubation of recombinant IGFBP-3 with IGF-1, with and without PAPPA2

binding [1]: binds | binding [2]: binds
Substance: recombinant IGFBP-3 (from UniProt P17936 28-291)
